Experimental data: publication PMC1513213
These are yes or no findings as the source states them, for the method shown. Binding seen in cells or lysates may run through a third protein. A result given as binding can be weak or reduced; the word gives no strength. Where a sequence is shown, tags or fusion partners need not be part of it.

Target: T1, LET-756::GFP (C. elegans) (UniProt Q11184)
T1 sequence: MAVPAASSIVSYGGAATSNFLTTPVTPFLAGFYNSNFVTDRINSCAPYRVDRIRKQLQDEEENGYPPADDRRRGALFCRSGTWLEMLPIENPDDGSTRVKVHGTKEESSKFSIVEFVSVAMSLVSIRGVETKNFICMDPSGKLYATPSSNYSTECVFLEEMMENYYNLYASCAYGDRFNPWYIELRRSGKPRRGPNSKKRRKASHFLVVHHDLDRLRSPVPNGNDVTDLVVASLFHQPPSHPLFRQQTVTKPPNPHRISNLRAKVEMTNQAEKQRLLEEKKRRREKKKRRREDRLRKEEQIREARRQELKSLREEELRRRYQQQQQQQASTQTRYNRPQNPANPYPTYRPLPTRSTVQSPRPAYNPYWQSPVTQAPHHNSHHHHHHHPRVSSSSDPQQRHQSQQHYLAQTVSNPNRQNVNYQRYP
Assay: co-IP; Cos-1 cells cotransfected with HA-tagged partner and LET-756::GFP, lysed 24 h later in triton buffer (10 mM Tris pH 7.4, 100 mM NaCl, 2.5 mM MgCl2, 1% triton, 1 mM EDTA, 10 mM DTT); immunoprecipitated with anti-GFP, blot with anti-HA then anti-GFP

binding | Substance
binds | HA-tagged C15C6.2 (C. elegans)
binds | HA-tagged COL-129 (C. elegans)
binds | HA-tagged KIN-10 (from UniProt P28548-2)
binds | HA-tagged SKR-2 (C. elegans)
